Reference: the supplement of paper PMC10849652
This is one part of the list.

Amino acid sequences for entries named in this document (tags omitted). A change or cut given only in a name is not applied to a line headed by its entry.
UniProt O14787: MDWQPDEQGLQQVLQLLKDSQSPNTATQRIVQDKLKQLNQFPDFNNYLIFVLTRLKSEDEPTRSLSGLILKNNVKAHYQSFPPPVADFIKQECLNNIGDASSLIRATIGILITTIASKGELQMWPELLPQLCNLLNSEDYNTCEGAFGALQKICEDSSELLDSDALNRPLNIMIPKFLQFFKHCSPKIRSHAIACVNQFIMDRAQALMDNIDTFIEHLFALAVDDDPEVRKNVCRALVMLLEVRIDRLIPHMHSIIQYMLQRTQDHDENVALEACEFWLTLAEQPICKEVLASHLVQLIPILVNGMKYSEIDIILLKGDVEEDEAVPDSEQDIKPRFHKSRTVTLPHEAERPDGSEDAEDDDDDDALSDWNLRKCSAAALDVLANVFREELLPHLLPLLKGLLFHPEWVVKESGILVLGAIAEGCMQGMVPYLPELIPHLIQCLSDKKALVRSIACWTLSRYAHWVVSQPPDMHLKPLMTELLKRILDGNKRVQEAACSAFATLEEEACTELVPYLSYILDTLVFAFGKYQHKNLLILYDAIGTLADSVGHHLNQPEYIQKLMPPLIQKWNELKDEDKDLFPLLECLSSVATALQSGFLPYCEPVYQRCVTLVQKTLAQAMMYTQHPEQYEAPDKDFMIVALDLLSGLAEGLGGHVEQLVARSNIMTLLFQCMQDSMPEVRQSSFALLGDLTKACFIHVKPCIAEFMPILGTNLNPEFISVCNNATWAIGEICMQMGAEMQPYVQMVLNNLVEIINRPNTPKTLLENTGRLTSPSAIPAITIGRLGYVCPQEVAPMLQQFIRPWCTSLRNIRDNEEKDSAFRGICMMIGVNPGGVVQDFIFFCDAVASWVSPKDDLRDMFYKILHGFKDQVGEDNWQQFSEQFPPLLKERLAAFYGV
UniProt Q5T3F8: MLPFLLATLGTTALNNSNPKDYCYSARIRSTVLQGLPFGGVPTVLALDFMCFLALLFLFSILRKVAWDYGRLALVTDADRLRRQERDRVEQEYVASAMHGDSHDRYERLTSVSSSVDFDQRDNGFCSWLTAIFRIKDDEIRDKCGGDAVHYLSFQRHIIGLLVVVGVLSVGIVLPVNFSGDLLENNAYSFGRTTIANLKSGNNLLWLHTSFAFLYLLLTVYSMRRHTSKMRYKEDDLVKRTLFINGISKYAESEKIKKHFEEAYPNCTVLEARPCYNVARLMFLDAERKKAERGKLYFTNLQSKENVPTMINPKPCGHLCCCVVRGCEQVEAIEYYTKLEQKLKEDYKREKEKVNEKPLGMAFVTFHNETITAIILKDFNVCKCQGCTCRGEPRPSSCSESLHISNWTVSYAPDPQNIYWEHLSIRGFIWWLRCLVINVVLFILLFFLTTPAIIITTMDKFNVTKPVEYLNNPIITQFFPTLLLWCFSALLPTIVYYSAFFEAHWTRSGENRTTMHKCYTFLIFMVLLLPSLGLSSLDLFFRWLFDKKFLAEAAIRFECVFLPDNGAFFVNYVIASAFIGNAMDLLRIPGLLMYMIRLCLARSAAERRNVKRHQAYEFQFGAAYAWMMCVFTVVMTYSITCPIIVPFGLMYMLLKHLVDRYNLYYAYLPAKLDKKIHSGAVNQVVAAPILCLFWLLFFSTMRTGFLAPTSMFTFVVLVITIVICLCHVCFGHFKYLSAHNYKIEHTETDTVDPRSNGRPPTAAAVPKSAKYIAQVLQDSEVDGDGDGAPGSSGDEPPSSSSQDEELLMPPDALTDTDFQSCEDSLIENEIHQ
UniProt P67936, whole entry, looked up: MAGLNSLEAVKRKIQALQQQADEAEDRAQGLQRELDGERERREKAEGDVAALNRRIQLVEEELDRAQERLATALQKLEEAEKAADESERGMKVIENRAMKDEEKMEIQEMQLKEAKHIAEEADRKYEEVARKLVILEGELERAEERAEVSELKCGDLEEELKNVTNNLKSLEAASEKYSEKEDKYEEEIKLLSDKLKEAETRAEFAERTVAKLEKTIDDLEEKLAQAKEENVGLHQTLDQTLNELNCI
UniProt Q5JTV8: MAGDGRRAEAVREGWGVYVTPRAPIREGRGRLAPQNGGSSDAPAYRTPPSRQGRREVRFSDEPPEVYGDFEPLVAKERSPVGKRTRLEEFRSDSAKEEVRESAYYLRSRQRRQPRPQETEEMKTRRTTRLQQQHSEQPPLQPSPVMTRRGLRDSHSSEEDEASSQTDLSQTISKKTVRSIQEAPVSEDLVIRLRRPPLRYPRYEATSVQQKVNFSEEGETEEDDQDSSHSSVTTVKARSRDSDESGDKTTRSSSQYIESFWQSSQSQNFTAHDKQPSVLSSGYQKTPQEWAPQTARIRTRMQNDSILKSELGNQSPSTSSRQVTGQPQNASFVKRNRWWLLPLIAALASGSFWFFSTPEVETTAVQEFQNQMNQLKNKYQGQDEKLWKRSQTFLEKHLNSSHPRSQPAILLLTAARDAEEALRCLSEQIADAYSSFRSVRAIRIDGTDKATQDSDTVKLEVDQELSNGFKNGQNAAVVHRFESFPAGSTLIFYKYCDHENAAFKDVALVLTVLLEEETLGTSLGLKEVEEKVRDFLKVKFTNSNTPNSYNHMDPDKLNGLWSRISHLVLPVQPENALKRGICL
UniProt O75674: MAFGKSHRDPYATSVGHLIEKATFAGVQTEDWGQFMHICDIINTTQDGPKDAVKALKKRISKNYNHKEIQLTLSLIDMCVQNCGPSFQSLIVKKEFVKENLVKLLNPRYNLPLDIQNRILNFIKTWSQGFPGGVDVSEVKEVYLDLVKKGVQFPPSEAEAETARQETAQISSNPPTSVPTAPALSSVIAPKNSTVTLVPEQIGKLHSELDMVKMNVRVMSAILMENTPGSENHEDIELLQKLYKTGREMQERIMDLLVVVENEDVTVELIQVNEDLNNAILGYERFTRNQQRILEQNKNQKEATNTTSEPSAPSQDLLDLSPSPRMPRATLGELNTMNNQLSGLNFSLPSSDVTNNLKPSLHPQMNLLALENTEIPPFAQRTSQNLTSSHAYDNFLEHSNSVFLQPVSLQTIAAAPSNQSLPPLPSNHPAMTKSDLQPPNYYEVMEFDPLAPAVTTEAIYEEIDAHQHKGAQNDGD
UniProt Q0P6H9: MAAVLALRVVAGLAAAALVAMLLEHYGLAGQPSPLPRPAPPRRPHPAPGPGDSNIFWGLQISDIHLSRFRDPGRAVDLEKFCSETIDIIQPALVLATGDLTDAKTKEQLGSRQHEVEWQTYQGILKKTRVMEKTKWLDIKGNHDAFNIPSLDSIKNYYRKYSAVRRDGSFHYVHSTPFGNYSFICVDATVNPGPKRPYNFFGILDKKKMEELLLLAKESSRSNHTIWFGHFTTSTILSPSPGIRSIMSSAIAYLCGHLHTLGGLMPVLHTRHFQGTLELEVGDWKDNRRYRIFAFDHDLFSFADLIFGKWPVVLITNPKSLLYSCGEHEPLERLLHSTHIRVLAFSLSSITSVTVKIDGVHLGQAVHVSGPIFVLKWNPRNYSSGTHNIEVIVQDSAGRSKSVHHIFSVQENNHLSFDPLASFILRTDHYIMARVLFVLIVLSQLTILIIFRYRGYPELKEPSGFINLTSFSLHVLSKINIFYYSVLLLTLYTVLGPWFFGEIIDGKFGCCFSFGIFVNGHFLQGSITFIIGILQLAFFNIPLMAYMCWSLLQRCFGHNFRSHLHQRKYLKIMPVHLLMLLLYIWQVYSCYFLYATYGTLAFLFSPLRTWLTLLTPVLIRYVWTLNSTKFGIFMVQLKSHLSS
UniProt Q9UKE5: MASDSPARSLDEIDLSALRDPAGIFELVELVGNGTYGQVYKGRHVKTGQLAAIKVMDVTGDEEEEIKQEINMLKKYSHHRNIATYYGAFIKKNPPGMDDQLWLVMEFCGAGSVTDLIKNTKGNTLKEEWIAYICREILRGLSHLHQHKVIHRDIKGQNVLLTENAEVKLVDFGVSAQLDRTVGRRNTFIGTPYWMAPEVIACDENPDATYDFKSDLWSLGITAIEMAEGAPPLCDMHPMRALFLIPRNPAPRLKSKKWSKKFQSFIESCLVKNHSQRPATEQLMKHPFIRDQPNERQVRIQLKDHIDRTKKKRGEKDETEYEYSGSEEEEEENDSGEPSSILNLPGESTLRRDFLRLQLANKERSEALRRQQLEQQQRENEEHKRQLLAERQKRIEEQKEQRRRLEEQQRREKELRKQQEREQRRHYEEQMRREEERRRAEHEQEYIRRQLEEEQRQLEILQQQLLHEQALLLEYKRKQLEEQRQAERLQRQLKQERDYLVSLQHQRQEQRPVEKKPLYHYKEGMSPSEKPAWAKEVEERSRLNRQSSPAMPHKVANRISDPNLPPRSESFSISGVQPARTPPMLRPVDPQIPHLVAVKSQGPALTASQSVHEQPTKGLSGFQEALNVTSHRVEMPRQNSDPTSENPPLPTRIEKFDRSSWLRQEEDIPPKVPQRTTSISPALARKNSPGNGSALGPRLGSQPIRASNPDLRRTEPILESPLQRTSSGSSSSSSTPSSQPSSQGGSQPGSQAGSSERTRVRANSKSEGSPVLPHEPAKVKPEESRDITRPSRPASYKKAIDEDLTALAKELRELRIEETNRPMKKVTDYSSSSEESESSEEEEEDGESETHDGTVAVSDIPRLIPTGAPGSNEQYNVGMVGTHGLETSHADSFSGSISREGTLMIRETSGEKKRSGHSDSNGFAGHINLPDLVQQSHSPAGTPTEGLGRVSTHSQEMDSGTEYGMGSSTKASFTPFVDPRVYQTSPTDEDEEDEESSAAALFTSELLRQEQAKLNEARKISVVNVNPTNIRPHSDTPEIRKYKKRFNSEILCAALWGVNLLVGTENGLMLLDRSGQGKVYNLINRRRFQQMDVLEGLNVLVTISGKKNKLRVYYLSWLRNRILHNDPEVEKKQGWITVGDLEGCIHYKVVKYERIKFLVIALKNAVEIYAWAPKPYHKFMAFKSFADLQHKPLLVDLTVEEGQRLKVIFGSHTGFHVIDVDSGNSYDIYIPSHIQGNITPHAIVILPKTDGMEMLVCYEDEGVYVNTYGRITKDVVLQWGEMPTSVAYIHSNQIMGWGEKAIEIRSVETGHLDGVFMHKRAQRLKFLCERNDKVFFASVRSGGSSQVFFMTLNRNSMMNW
UniProt O60784, whole entry, looked up: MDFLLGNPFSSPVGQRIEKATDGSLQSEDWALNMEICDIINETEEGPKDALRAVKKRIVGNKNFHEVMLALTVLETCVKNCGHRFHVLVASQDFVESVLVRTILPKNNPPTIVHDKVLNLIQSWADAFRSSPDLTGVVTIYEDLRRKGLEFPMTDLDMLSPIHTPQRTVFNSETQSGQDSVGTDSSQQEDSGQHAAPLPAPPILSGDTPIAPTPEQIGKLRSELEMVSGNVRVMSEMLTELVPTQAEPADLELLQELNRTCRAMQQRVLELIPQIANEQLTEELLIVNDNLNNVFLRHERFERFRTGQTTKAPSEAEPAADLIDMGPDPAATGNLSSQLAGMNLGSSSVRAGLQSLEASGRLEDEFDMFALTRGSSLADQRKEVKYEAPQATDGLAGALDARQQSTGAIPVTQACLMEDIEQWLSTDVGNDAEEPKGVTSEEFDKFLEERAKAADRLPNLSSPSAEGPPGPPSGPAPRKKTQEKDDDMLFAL
UniProt Q96JJ7: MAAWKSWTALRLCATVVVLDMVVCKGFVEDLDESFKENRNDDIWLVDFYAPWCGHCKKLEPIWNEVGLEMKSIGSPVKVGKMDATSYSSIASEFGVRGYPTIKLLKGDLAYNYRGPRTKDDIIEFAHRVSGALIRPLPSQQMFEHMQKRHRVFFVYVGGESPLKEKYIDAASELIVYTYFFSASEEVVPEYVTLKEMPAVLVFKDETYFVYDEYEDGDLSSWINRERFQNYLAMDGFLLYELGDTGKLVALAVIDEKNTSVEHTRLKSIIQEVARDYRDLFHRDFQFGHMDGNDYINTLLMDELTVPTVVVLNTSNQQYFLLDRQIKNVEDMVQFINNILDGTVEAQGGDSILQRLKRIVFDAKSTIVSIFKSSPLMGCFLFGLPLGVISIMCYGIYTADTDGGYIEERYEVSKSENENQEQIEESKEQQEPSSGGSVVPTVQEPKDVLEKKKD
UniProt P42167: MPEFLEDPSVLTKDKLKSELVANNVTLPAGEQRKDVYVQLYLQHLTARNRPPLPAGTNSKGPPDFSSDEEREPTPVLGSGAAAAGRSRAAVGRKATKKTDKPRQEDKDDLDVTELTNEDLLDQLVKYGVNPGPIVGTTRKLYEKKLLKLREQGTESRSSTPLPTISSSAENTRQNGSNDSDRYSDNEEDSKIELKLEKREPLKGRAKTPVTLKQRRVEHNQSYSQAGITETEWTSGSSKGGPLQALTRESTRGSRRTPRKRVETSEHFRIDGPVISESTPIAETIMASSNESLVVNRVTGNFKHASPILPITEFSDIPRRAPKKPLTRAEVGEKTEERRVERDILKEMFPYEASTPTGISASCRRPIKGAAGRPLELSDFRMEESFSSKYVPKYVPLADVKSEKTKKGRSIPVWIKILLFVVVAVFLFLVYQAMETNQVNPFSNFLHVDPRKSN
UniProt P02585, whole entry, looked up: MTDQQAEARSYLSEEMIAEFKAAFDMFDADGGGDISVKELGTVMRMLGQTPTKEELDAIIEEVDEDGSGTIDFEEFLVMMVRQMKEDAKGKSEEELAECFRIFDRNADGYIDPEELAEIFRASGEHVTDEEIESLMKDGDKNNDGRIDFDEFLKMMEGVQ

Key:
Assay in all cases: log2 fold change, soluble protein after heating vs DMSO (PISA); higher = thermal stabilisation; K562 lysate, 10 uM; active = over 0.2 and 3.5 SD of the protein, either way, in both replicates (recomputed)
alvocidib = compound: CN1CC[C@H](c2c(O)cc(O)c3c(=O)cc(-c4ccccc4Cl)oc23)[C@H](O)C1 [alvocidib]
Procedure, shortened: (§1)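 K562 pellets were dounce-homogenised in PBS pH 7.4 with 1 mM MgCl2, and the crude extract at 1 mg/mL protein was treated with 10 μM compound for 30 min. Aliquots were heated for 3 min across 48°C-58°C, pooled, and brought to 0.5% NP-40 at 4°C; soluble protein was the supernatant after 21,000xg for 90 min. Soluble protein was quantified by TMTpro 16plex LC-MS/MS with channel sums equalised, and reported as log2 fold change in thermal stability against DMSO controls, with values from duplicates.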

Tubastatin A = compound: CN1CCc2c(c3ccccc3n2Cc2ccc(C(=O)NO)cc2)C1 [Tubastatin A]
Procedure, shortened: as §1

[1] = compound: CNC(=O)C1=CC=CC=C1NC2=NC(=NC=C2Cl)NC3=C(C=C(C=C3)N4CCOCC4)OC
Procedure, shortened: as §1

defactinib = compound: CNC(=O)c1ccc(Nc2ncc(C(F)(F)F)c(NCc3nccnc3N(C)S(C)(=O)=O)n2)cc1 [defactinib]
Procedure, shortened: as §1

[2] = compound: CNc1nc(-c2ccc3c(N)n[nH]c3c2)cc(N2C[C@@H](C(=O)NC3CCCCC3)CC[C@H]2C)n1
Procedure, shortened: as §1

encorafenib = compound: COC(=O)N[C@@H](C)CNc1nccc(-c2cn(C(C)C)nc2-c2cc(Cl)cc(NS(C)(=O)=O)c2F)n1 [encorafenib]
Procedure, shortened: as §1

[3] = compound: COC(=O)[C@H](CCSC)NC(=O)C1=C(C=C(C=C1)NC[C@H](CS)N)C2=CC=CC=C2
Procedure, shortened: as §1

alisertib = compound: COc1cc(Nc2ncc3c(n2)-c2ccc(Cl)cc2C(c2c(F)cccc2OC)=NC3)ccc1C(=O)O [alisertib]
Procedure, shortened: as §1

[4] = compound: COc1cc2nc(-c3cc(F)ccc3O)nc(N[C@@H]3CNC[C@H]3C(C)(C)O)c2cc1OC
Procedure, shortened: as §1

gefitinib = compound: COc1cc2ncnc(Nc3ccc(F)c(Cl)c3)c2cc1OCCCN1CCOCC1 [gefitinib]
Procedure, shortened: as §1

Measured: log2 fold change

TNPO2 (UniProt O14787)
inactive: alvocidib -0.01 | Tubastatin A -0.069 | [1] 0.012 | defactinib 0.001 | [2] 0.053 | encorafenib 0 | [3] 0.039 | alisertib -0.003 | [4] 0.004 | gefitinib -0.003

TMEM63B (UniProt Q5T3F8)
inactive: alvocidib -0.01 | Tubastatin A 0.008 | [1] -0.019 | defactinib 0.043 | [2] -0.029 | encorafenib 0.022 | [3] -0.01 | alisertib -0.04 | [4] -0.003 | gefitinib 0.055

TPM4 isoform 2 (UniProt P67936)
inactive: alvocidib 0.062 | Tubastatin A 0.03 | [1] -0.027 | defactinib -0.059 | [2] 0.028 | encorafenib -0.004 | [3] -0.077 | alisertib -0.098 | [4] -0.01 | gefitinib -0.004

TPP2 (UniProt P29144)
inactive: alvocidib 0.018 | Tubastatin A -0.028 | [1] -0.014 | defactinib -0.014 | [2] -0.03 | encorafenib 0 | [3] 0.068 | alisertib -0.02 | [4] 0 | gefitinib 0.008

TOR1AIP1 isoform 3 (UniProt Q5JTV8)
inactive: alvocidib -0.011 | Tubastatin A 0.034 | [1] 0.01 | defactinib 0.023 | [2] 0.01 | encorafenib -0.017 | [3] -0.051 | alisertib -0.02 | [4] -0.004 | gefitinib 0.043

TMEM41A (UniProt Q96HV5)
inactive: alvocidib -0.002 | Tubastatin A -0.01 | [1] -0.037 | defactinib 0.035 | [2] -0.031 | encorafenib 0.021 | [3] -0.025 | alisertib 0.036 | [4] 0.019 | gefitinib 0.033

TNRC6B (UniProt Q9UPQ9)
inactive: alvocidib 0.004 | Tubastatin A -0.065 | [1] -0.064 | defactinib 0.069 | [2] -0.03 | encorafenib 0.034 | [3] 0.016 | alisertib -0.024 | [4] 0.041 | gefitinib 0.003

TMEM33 (UniProt P57088)
inactive: alvocidib 0.02 | Tubastatin A 0.034 | [1] 0.047 | defactinib -0.021 | [2] -0.03 | encorafenib -0.026 | [3] 0.013 | alisertib -0.025 | [4] 0.018 | gefitinib 0.02

TOM1L1 (UniProt O75674)
inactive: alvocidib -0.057 | Tubastatin A -0.022 | [1] 0.018 | defactinib -0.05 | [2] -0.045 | encorafenib 0.018 | [3] -0.022 | alisertib -0.004 | [4] -0.008 | gefitinib 0.018

TMEM192 (UniProt Q8IY95)
inactive: alvocidib -0.007 | Tubastatin A -0.044 | [1] -0.047 | defactinib -0.063 | [2] -0.004 | encorafenib -0.034 | [3] -0.036 | alisertib -0.016 | [4] -0.024 | gefitinib 0.036

TMEM9B (UniProt Q9NQ34)
inactive: alvocidib 0.102 | Tubastatin A -0.075 | [1] -0.042 | defactinib 0.139 | [2] -0.077 | encorafenib 0.158 | [3] 0.055 | alisertib 0.034 | [4] 0.067 | gefitinib -0.007

Retrieved one by one from the entries so far (2):
TMEM63B (UniProt Q5T3F8)
inactive: alvocidib -0.01 | Tubastatin A 0.008 | [1] -0.019 | defactinib 0.043 | [2] -0.029 | encorafenib 0.022 | [3] -0.01 | alisertib -0.04 | [4] -0.003 | gefitinib 0.055

TMEM9B (UniProt Q9NQ34)
inactive: alvocidib 0.102 | Tubastatin A -0.075 | [1] -0.042 | defactinib 0.139 | [2] -0.077 | encorafenib 0.158 | [3] 0.055 | alisertib 0.034 | [4] 0.067 | gefitinib -0.007

Continued:

TMX2 (UniProt Q9Y320)
inactive: alvocidib 0 | Tubastatin A 0.013 | [1] -0.043 | defactinib -0.015 | [2] -0.012 | encorafenib 0.054 | [3] -0.028 | alisertib -0.021 | [4] -0.01 | gefitinib -0.011

TMEM62 (UniProt Q0P6H9)
inactive: alvocidib 0 | Tubastatin A 0.029 | [1] 0.052 | defactinib 0.033 | [2] 0.138 | encorafenib -0.008 | [3] -0.012 | alisertib 0.01 | [4] -0.09 | gefitinib -0.105

TPR (UniProt P12270)
inactive: alvocidib 0.013 | Tubastatin A 0.033 | [1] 0.003 | defactinib -0.014 | [2] 0.024 | encorafenib 0.005 | [3] -0.03 | alisertib -0.01 | [4] -0.003 | gefitinib 0.021

TNIK isoform 4 (UniProt Q9UKE5)
inactive: alvocidib -0.015 | Tubastatin A -0.071 | [1] 0.085 | defactinib 0.148 | [2] -0.04 | encorafenib -0.026 | [3] -0.097 | alisertib -0.026 | [4] 0.247 | gefitinib -0.005

TNFAIP1 (UniProt Q13829)
inactive: alvocidib 0.221 | Tubastatin A 0.148

TNNC1 (UniProt P63316)
inactive: alvocidib -1.92

TOM1 isoform 2 (UniProt O60784)
inactive: alvocidib -0.005 | Tubastatin A 0.023 | [1] 0.006 | defactinib 0.012 | [2] 0.047 | encorafenib 0.03 | [3] 0.003 | alisertib -0.089 | [4] 0.016 | gefitinib -0.065

TOP1 (UniProt P11387)
inactive: alvocidib 0.011 | Tubastatin A -0.066 | [1] -0.046 | defactinib -0.01 | [2] -0.037 | encorafenib 0.027 | [3] 0.077 | alisertib -0.012 | [4] -0.006 | gefitinib 0

TPD52L2 isoform 7 (UniProt O43399)
inactive: alvocidib -0.043 | Tubastatin A 0.062 | [1] -0.005 | defactinib 0.023 | [2] 0.086 | encorafenib -0.026 | [3] 0.008 | alisertib -0.01 | [4] 0.037 | gefitinib 0.02

TNKS1BP1 (UniProt Q9C0C2)
inactive: alvocidib -0.037 | Tubastatin A 0.018 | [1] 0.001 | defactinib -0.003 | [2] -0.003 | encorafenib 0.034 | [3] -0.044 | alisertib -0.008 | [4] 0.012 | gefitinib -0.015

TPST2 (UniProt O60704)
inactive: alvocidib -0.107 | Tubastatin A 0.059 | [1] 0.041 | defactinib -0.038 | [2] -0.02 | encorafenib 0.03 | [3] -0.049 | alisertib 0.478 | [4] 0.025 | gefitinib 0.072

TMEM38B (UniProt Q9NVV0)
inactive: alvocidib -0.102 | Tubastatin A 0.038 | [1] -0.017 | defactinib 0.09 | [2] 0.085 | encorafenib 0.016 | [3] -0.073 | alisertib -0.011 | [4] 0.017 | gefitinib -0.016

TMX3 (UniProt Q96JJ7)
inactive: alvocidib -0.012 | Tubastatin A 0.014 | [1] -0.013 | defactinib -0.014 | [2] 0.009 | encorafenib 0.02 | [3] -0.046 | alisertib -0.043 | [4] 0.053 | gefitinib 0.029

TMEM87A (UniProt Q8NBN3)
inactive: alvocidib -0.076 | Tubastatin A -0.013 | [1] -0.012 | defactinib -0.006 | [2] -0.017 | encorafenib 0.022 | [3] -0.045 | alisertib -0.02 | [4] 0.015 | gefitinib 0.022

TPT1 (UniProt P13693)
inactive: alvocidib 0.024 | Tubastatin A 0.015 | [1] -0.02 | defactinib 0.007 | [2] 0.026 | encorafenib -0.007 | [3] -0.055 | alisertib -0.023 | [4] -0.001 | gefitinib -0.039

TMPO (UniProt P42167)
inactive: alvocidib -0.007 | Tubastatin A 0.018 | [1] -0.034 | defactinib -0.015 | [2] 0.029 | encorafenib 0.035 | [3] -0.163 | alisertib -0.026 | [4] -0.025 | gefitinib 0.027

TNNC2 (UniProt P02585)
inactive: alvocidib -0.037 | Tubastatin A 0.01 | [1] 0.003 | defactinib 0.068 | [2] 0.007 | encorafenib 0.021 | [3] -0.083 | alisertib 0.044 | [4] -0.03 | gefitinib -0.084

TNNI3K isoform 1 (UniProt Q59H18)
inactive: alvocidib 0.001 | Tubastatin A -0.148 | [1] -0.129 | defactinib 0 | [2] 0.056 | encorafenib -0.062 | [3] 0.136 | alisertib 0.014 | [4] 0.009 | gefitinib -0.047
